# In PubChem BioAssay AID445 (National Center for Advancing Translational Sciences (NCATS), 2006):
# Values joined by “and” are separate entries in the source; they are usually repeats but may differ in a detail not shown here. Identical values can stand only once. Some of the results follow. Further columns of the screen follow, without active or inactive calls. The list favours compounds with an active or inconclusive main result. Potencies come from curve fits of mixed quality, noted in brackets.
# Assay: IkB Signaling
# Conditions: ABC-DLBCL IkBa-CBG/CBR dual luciferase ratio (green luciferase fused to IkBa over red control in OCI-Ly3 lymphoma cells), 4 h; measured here: control luc red channel unless noted
# Outline: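 Curves were fitted separately to fusion (green), unfused (red) and ratio luminescence, then classed by r2, magnitude and activity. Cells: OCI-Ly3, 4 h compound plus doxycycline at 37C; 10 uM MG-132 defined full response.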
row,Structure (SMILES),AC50
1,CCOc1ccccc1C(=O)NCC(c1ccc(N(C)C)cc1)N1CCCC1 (stereo unspecified),"20 µM [falling, partial curve]"
2,Clc1ccc2c(c1)N=C(N1CCNCC1)c1ccccc1N2,"39.8 µM [falling, partial curve]"
3,CCn1c(CN2CCN(C)CC2)nc2cc(NC(=O)c3cc(OC)c(OC)c(OC)c3)ccc21,"39.8 µM [falling, single point]"
4,CCOc1ccccc1C1Nc2ccccc2-c2nnc(SCc3ccccc3)nc2O1 (stereo unspecified),"12.6 µM [falling, partial curve]"
5,C=CCn1c(SCC(=O)c2ccc(OC)cc2)nnc1C(C)NC(=O)c1cccs1 (stereo unspecified),"12.6 µM [falling, partial curve]"
6,COCCCn1c(=N)c(C(=O)NC2CCCC2)cc2c(=O)n3cc(C)ccc3nc21,"39.8 µM [falling, single point]"
7,COc1ccc(CCCc2nnc(SCC(=O)Nc3ccc(Cl)cc3)o2)cc1,"3.98 µM [falling, full curve]"
8,CCc1ccccc1NC(=O)c1ccc2[nH]c(C)c(C)c2c1,"2.51 µM [rising, full curve, poor fit]"
9,COc1ccc(-c2cc(-c3cccs3)c(C#N)c(SCC(=O)NCc3ccco3)n2)cc1,"2 µM [rising, full curve]"
10,Cc1ccccc1CN1C(=O)C(O)(CC(=O)c2cccc(Br)c2)c2ccccc21 (stereo unspecified),"12.6 µM [falling, partial curve]"
11,COC(=O)c1[nH]c2cccc(OC)c2c1NC(=O)CCN1CCN(c2cccc(Cl)c2)CC1,"15.8 µM [falling, partial curve]"
12,CCOc1ccccc1N(CC)C(=O)c1cc2c(=O)n(CC)c3ccccc3c2s1,"3.16 µM [falling, full curve]"
13,Cc1ccc(CN(C(=O)c2ccc([N+](=O)[O-])cc2)c2ccccn2)cc1,"39.8 µM [falling, single point]"
14,Cc1ccc(OCC(=O)Nc2ccccc2C(=O)OCc2cc(=O)n3c(C)csc3n2)cc1,"3.16 µM [falling, full curve]"
15,CC(C(=O)NCc1ccc(Cl)cc1)n1ccc2cc(S(=O)(=O)N3CCCC3)ccc21 (stereo unspecified),"25.1 µM [falling, partial curve]"
16,Cc1cc(C)cc(NS(=O)(=O)c2ccc3[nH]cc(C(=O)NCc4ccco4)c(=O)c3c2)c1,"2.51 µM [falling, partial curve] and 3.16 µM [falling, partial curve]"
17,CN(c1ccccc1)S(=O)(=O)c1cc(C(=O)N2CCN(c3ccccn3)CC2)ccc1Cl,"15.8 µM [falling, partial curve]"
18,CCC(O)c1nc2ccccc2n1CCOc1cc(C)cc(C)c1 (stereo unspecified),"0.501 µM [rising, partial curve]"
19,Cc1ccc(-c2cc(C(=O)Nc3cc(C)on3)c3ccccc3n2)c(C)c1,"10 µM [falling, partial curve]"
20,CCOc1ccccc1C(=O)Nc1cc2c(cc1N1CCCCC1)n(C)c(=O)n2C,"39.8 µM [falling, single point]"
21,COc1ccc(NC(=O)CSc2n[nH]c(-c3ccccc3)n2)cc1Cl,"0.1 µM [falling, partial curve]"

row,Structure (SMILES),AC50
1,Cc1cc(C)nc(N(C#N)CN2C(=O)c3ccccc3S2(=O)=O)n1,"3.98 µM [rising, partial curve] [measured here: IkB-luc green channel]"
2,OC(CCN1CCOCC1)(c1ccc(Cl)cc1)C1CCCCC1 (stereo unspecified),"31.6 µM [falling, single point] [measured here: IkB-luc green channel]"
3,Cc1cccc(NC(=O)C2CCCN(S(=O)(=O)c3cccc4cccnc34)C2)c1 (stereo unspecified),"20 µM [falling, partial curve]"
4,CC(C)Oc1cccc(-n2c(CCc3c[nH]c4ccc(Br)cc34)nc3ccccc3c2=O)c1,"15.8 µM [falling, partial curve]"
5,COC(=O)c1ccc(NC(=O)C2CCN(S(=O)(=O)c3ccc4c(c3)CCCN4C(C)=O)CC2)cc1,"0.1 µM [falling, full curve, poor fit]"
6,COc1cc(NC(=O)CSc2nc3nc(C)c(Cc4ccccc4)c(C)n3n2)cc(OC)c1OC,"25.1 µM [falling, partial curve]"
7,CCc1nnc2n1N(C(C)=O)C(c1ccc(C(C)(C)C)cc1)=C(C(C)=O)S2,"20 µM [falling, partial curve]"
8,Cc1ccc(NC(=O)NC(=O)CN2C(=O)NC3(CCc4ccccc43)C2=O)c(C)c1 (stereo unspecified),"25.1 µM [falling, partial curve]"
9,CCOC(=O)c1cc2c(=O)n3ccccc3nc2n(CC2CCCO2)c1=NC(=O)c1cc(C)cc(C)c1 (stereo unspecified),"3.98 µM [falling, full curve]"
10,CCOc1cc(NC(=O)c2ccco2)c(OCC)cc1NC(=O)c1cc(OC)c(OC)c(OC)c1,"0.794 µM [falling, full curve, poor fit]"
11,Cc1[nH]c2ccccc2c1C1(O)C(=O)N(Cc2ccc(Cl)cc2)c2ccccc21 (stereo unspecified),"25.1 µM [falling, partial curve]"
12,CCc1cccc(C)c1Nc1c(-c2cccc(O)c2)nc2sccn12,"12.6 µM [falling, partial curve]"
13,COc1cc(-c2nnc(SCC(=O)Nc3cccc(C#N)c3)o2)cc(OC)c1OC,"7.94 µM [falling, full curve]"
14,CCOC(=O)C1CCCN(S(=O)(=O)c2ccc3c(c2)N(C)C(=O)CC(=O)N3C)C1 (stereo unspecified),"15.8 µM [falling, partial curve]"
15,Cc1cccc(NC(=O)CSc2nnc(-c3cc(C)n(-c4ccccc4)c3C)o2)c1C,"15.8 µM [falling, partial curve]"
16,CC(C)(C)Nc1c(N)c(=O)oc2ccccc12,"20 µM [falling, partial curve]"
17,CCOc1ccc(-n2c(=O)c3sc4ccccc4c3n(Cc3ccc(F)cc3)c2=O)cc1,"0.158 µM [rising, full curve]"
18,CC(C)c1cnc2c(c1SCC(=O)Nc1cccc([N+](=O)[O-])c1)c(=O)n(C)c(=O)n2C,"20 µM [falling, partial curve]"
19,CCCCC(CC)Cn1c(Oc2ccccc2)nc2c1c(=O)n(C)c(=O)n2C (stereo unspecified),"12.6 µM [falling, partial curve]"
20,Cc1cc(C)c(NC(=O)C(=O)NCC(c2cccnc2)N2CCN(c3ccccc3F)CC2)c(C)c1 (stereo unspecified),"25.1 µM [falling, single point]"
21,CCc1cccc(NC(=O)c2cc3c(s2)-c2ccccc2OC3)c1,"0.0794 µM [falling, full curve]"

row,Structure (SMILES),AC50
1,CC(=O)Nc1cccc(NC(=O)CSc2nccn2C2CCCC2)c1,"39.8 µM [falling, single point]"
2,Cc1ccc(CNC(=O)c2cc3c(-c4ccc(Cl)cc4)nn(C)c3s2)o1,"3.16 µM [falling, partial curve]"
3,CN(Cc1ccccc1)c1ccc(-c2nc(-c3ccccc3)no2)cc1[N+](=O)[O-],"20 µM [falling, partial curve]"
4,COC(=O)c1ccc2c(=O)n3nc(Nc4cc(OC)ccc4OC)sc3nc2c1,"0.316 µM [falling, full curve, poor fit]"
5,CCOc1cc(S(=O)(=O)N2CCN(Cc3ccccc3)CC2)ccc1Br,"10 µM [falling, partial curve]"
6,CCC(Sc1ncc(S(=O)(=O)c2ccc(Cl)cc2)c(=O)[nH]1)C(=O)Nc1ccc(OC)cc1 (stereo unspecified),"0.01 µM [falling, full curve, poor fit]"
7,Cc1ccc2[nH]c(=O)c3cc(C(=O)N(CCCOC(C)C)Cc4ccco4)sc3c2c1,"0.1 µM [falling, full curve]"
8,COc1ccc(Cl)cc1NC(=O)CSc1nnc2[nH]c(=O)cc(-c3ccccc3)n12,"0.631 µM [falling, full curve]"
9,CCC(c1nnnn1C1CCCC1)N(Cc1cccs1)Cc1cc2cc(C)ccc2[nH]c1=O (stereo unspecified),"20 µM [falling, partial curve]"
10,COc1ccccc1N1CCN(C(=O)c2ccc3c(=O)n(Cc4ccco4)c(=S)[nH]c3c2)CC1,"12.6 µM [falling, partial curve]"
11,CN(CC(=O)Nc1ccc(Br)cc1)S(=O)(=O)c1cccc2nsnc12,"25.1 µM [falling, single point]"
12,COc1ccc(NC(=O)C2CCN(C(=O)c3sc4nc[nH]c(=O)c4c3C)CC2)cc1Cl,"20 µM [rising, partial curve, poor fit]"
13,COc1ccccc1N1CCN(C(=O)c2cccc(N3C(=O)NC4CC3(C)Oc3ccccc34)c2)CC1 (stereo unspecified),"15.8 µM [falling, partial curve]"
14,COc1ccc(NC(=O)c2oc3ccccc3c2NC(=O)c2cc(C)cc(C)c2)c(OC)c1,"1.26 µM [rising, full curve, poor fit]"
15,COC(=O)c1c(-c2cccs2)csc1NC(=O)c1cccnc1,"39.8 µM [falling, single point]"
16,CCOC(=O)C1CCN(c2nc3ccccc3nc2Cl)CC1,"39.8 µM [falling, single point]"
17,CCN(C(=O)CSc1nc2ccccc2n1Cc1ccccc1C#N)c1ccccc1,"25.1 µM [falling, partial curve]"
18,COc1ccc(-n2nc(C(=O)Nc3ccc(C)cn3)c3c4ccccc4n(C)c3c2=O)cc1Cl,"15.8 µM [rising, partial curve, poor fit]"
19,Cc1ccc2c(C)c(C(=O)NCC(c3ccc(Cl)cc3)N3CCOCC3)oc2c1 (stereo unspecified),"15.8 µM [falling, partial curve]"
